Common to all, as to assay: pull-down; purified GST-occludin fusion proteins (2 μg) incubated with purified CK2 (0,25 μl), 1 h at 4°C, in 50 mM Tris/HCl pH 8.0, 50 mM KCl, 0.04% Triton X-100, 4 mM MgCl2; GSH-agarose beads; blot with anti-CK2α; both purified
Test [1] deals with T1, GST-Occ263-389, membrane proximal part of the occludin cytoplasmic domain (human) (UniProt Q16625).
T1 sequence: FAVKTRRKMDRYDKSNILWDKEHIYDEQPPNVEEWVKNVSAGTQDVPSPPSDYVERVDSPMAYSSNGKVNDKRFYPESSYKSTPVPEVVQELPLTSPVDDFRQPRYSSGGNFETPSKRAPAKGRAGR

Amino acid sequences for entries named in this document (tags omitted). A change or cut given only in a name is not applied to a line headed by its entry.
UniProt P68400: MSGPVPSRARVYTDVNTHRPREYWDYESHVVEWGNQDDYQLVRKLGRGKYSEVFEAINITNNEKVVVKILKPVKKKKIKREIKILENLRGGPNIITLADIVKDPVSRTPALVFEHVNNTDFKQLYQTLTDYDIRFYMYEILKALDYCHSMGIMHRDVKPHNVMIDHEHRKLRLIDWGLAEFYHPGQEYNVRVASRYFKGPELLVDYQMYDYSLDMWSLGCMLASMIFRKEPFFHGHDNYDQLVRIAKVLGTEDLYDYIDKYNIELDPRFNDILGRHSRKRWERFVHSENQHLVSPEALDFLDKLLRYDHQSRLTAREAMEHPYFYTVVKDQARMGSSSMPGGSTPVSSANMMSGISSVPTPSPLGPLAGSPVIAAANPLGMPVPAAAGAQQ

Test [2] has as its target T2, GST-Occ381-523, distal part of the occludin C-terminal cytoplasmic domain (human) (UniProt Q16625).
T2 sequence: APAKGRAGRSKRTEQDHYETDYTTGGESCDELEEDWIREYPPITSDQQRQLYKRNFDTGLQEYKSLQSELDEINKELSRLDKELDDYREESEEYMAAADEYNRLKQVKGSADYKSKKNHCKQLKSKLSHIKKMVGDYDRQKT

Test [3] concerns the target T3, GST-OccC, GST fusion of the C-terminal cytoplasmic tail of human occludin (amino acids 263-523) (human) (UniProt Q16625).
T3 sequence: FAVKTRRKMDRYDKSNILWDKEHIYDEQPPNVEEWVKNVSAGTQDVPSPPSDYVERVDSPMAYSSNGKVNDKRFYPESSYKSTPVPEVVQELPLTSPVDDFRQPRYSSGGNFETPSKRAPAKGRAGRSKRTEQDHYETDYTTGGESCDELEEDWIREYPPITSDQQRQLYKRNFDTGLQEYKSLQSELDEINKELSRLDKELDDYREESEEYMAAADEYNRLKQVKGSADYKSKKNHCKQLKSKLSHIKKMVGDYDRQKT

No constants are given. Whether binding was seen depends on the method and setting. Some entries that bind do so weakly or less than the wild type. Sequences can lack the tags named with a protein.

Consider “purified recombinant CK2 (from UniProt P68400 1-391; P67870 1-215) (complex)”, for which the binding result in test [1] is reported as “binds”; in test [2], “no binding”; in test [3] it was “binds”.
